# Experimental data from PMC8677624.
# B1: O-GlcNAc transferase (OGT), endogenous (enzyme, UniProt O15294 1-1046)
# chain: MASSVGNVADSTEPTKRMLSFQGLAELAHREYQAGDFEAAERHCMQLWRQEPDNTGVLLLLSSIHFQCRRLDRSAHFSTLAIKQNPLLAEAYSNLGNVYKERGQLQEAIEHYRHALRLKPDFIDGYINLAAALVAAGDMEGAVQAYVSALQYNPDLYCVRSDLGNLLKALGRLEEAKACYLKAIETQPNFAVAWSNLGCVFNAQGEIWLAIHHFEKAVTLDPNFLDAYINLGNVLKEARIFDRAVAAYLRALSLSPNHAVVHGNLACVYYEQGLIDLAIDTYRRAIELQPHFPDAYCNLANALKEKGSVAEAEDCYNTALRLCPTHADSLNNLANIKREQGNIEEAVRLYRKALEVFPEFAAAHSNLASVLQQQGKLQEALMHYKEAIRISPTFADAYSNMGNTLKEMQDVQGALQCYTRAIQINPAFADAHSNLASIHKDSGNIPEAIASYRTALKLKPDFPDAYCNLAHCLQIVCDWTDYDERMKKLVSIVADQLEKNRLPSVHPHHSMLYPLSHGFRKAIAERHGNLCLDKINVLHKPPYEHPKDLKLSDGRLRVGYVSSDFGNHPTSHLMQSIPGMHNPDKFEVFCYALSPDDGTNFRVKVMAEANHFIDLSQIPCNGKAADRIHQDGIHILVNMNGYTKGARNELFALRPAPIQAMWLGYPGTSGALFMDYIITDQETSPAEVAEQYSEKLAYMPHTFFIGDHANMFPHLKKKAVIDFKSNGHIYDNRIVLNGIDLKAFLDSLPDVKIVKMKCPDGGDNADSSNTALNMPVIPMNTIAEAVIEMINRGQIQITINGFSISNGLATTQINNKAATGEEVPRTIIVTTRSQYGLPEDAIVYCNFNQLYKIDPSTLQMWANILKRVPNSVLWLLRFPAVGEPNIQQYAQNMGLPQNRIIFSPVAPKEEHVRRGQLADVCLDTPLCNGHTTGMDVLWAGTPMVTMPGETLASRVAASQLTCLGCLELIAKNRQEYEDIAVKLGTDLEYLKKVRGKVWKQRISSPLFNTKQYTMELERLYLQMWEHYAAGNKPDHMIKPVEVTESA
# B2: HA-OGT (enzyme, UniProt O15294 1-1046)
# chain: B1 chain
# Key:
# [1] = target: Lysine acetyltransferase 5 (KAT5), endogenous (human (endogenous in MHCC-97H)); assay: co-IP; endogenous OGT and KAT5 in MHCC-97H cells; lysis buffer 50 mM Tris-HCl pH 7.4, 1 mM EDTA, 150 mM NaCl, 1% Triton X-100; antibody overnight at 4 °C, protein A/G agarose beads
# [2] = target: Flag-tagged full-length KAT5 (WT); assay: co-IP; HA-OGT and Flag-tagged full-length or truncated KAT5 expressed in MHCC-97H cells; lysis buffer 50 mM Tris-HCl pH 7.4, 1 mM EDTA, 150 mM NaCl, 1% Triton X-100; antibody overnight at 4 °C, protein A/G agarose beads
# [3] = target: Flag-tagged truncated KAT5, Chr 1-209aa; assay: as above
# [4] = target: Flag-tagged truncated KAT5, Zn 76-315aa; assay: as above
Binder,binding [1],binding [2],binding [3],binding [4]
B1,binds,,,
B2,,binds,binds,binds

# No constants are given. Whether binding was seen depends on the method and setting. In cells and extracts the contact can be indirect. Binding calls can cover weak binding; strength is not graded here. For some of these results: Where a sequence is shown, tags or fusion partners need not be part of it.
